According to PubChem BioAssay AID2685 (National Center for Advancing Translational Sciences (NCATS), 2010):
The list shows a part of the results. These are further read-outs of the screen, such as a control signal, another cell line or another target. No call is given for them. Compounds called inactive in the main read-out are mostly missing here. Words in brackets tell the shape of the fitted curve; partial curves, single points and poor fits give uncertain potencies.

Assay: qHTS Assay for Lipid Storage Modulators in Drosophila S3 Cells;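 for cell number change: cells counted by Cell Tracker Red CMTPX staining in the red channel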
Details: BODIPY lipid droplet fluorescence, 18-24 h; for cell number change: measured here: cell count max response, cells fed with added oleic acid
Procedure, shortened: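 Drosophila S3 cells loaded with oleic acid (400 uM, as added) and compounds at several concentrations; lipid droplets imaged by 488-nm laser-scanning cytometry, 500–530 nm intensity and object ratio to cell channel. Percent activity normalized to 20 uM Triacsin C.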

[1] = measured here: lipid fluorescence (Fed channel) AC50, cells fed with added oleic acid
[2] = measured here: cell number channel AC50, cells fed with added oleic acid

Row | SMILES | cell number change [%] | AC50 [1] | AC50 [2]
1 | COCCOC(=O)c1[nH]c2c(c1C)C(=O)CC(c1cc(OC)c(OC)c(OC)c1)C2 (stereo unspecified) | -27.7 | – | –
2 | O=C(Nc1nc(-c2ccc(Cl)s2)cs1)c1ccco1 | 36.9 | – | –
3 | Cc1cccc(Cn2c(NCC(C)O)nc3c2c(=O)n(C)c(=O)n3C)c1 (stereo unspecified) | – | 0.146 µM [falling, full curve] | –
4 | c1ccc(C2CC(c3ccccc3)n3ncnc3N2)cc1 (stereo unspecified) | -18.8 | 6.51 µM [rising, single point] | –
5 | CC1(C)CC(=O)C(C=NCCN2CCN(CC(=O)Nc3ccc(F)cc3)CC2)=C(O)C1 | 6.55 | – | –
6 | CC(C)(C)C(=O)OCCNc1nc(-c2ccccc2)nc2ccccc12 | 21.7 | 1.64 µM [rising, partial curve] | –
7 | COc1ccc2c(-c3ccccc3)cc(SCC(=O)N(C)C3CCS(=O)(=O)C3)nc2c1 (stereo unspecified) | – | 0.0651 µM [rising, full curve, poor fit] | –
8 | CC(C)C[C@H](NC(=O)NCCc1ccc(Cl)cc1)C(=O)O | 4.65 | – | –
9 | CCN(C(=O)/C=C/c1ccc(OC)cc1)C1CCCCC1 | 15.9 | – | –
10 | Fc1cccc2sc(Nc3nc4ccccc4s3)nc12 | -44.1 | – | 0.231 µM [rising, full curve, poor fit]
11 | COc1ccc(CCNC(=O)CNC(=O)Cn2ccc3ccccc3c2=O)cc1OC | -32.2 | 23.1 µM [falling, partial curve, poor fit] | 0.0058 µM [falling, full curve, poor fit]
12 | COc1ccccc1NS(=O)(=O)c1cc(NC(=O)C2CC2)ccc1N1CCOCC1 | -3.87 | – | –
13 | COc1ccc(C(=O)CCN2CCC(C)CC2)cc1 | -48.9 | 6.51 µM [falling, partial curve] | 0.0326 µM [falling, full curve, poor fit]
14 | CCOC(=O)c1cccc(NC(=O)CCc2nc(-c3ccc(C)cc3)no2)c1 | -35.7 | 29.1 µM [falling, single point] | 14.6 µM [falling, single point]
15 | O=C(NCc1cccnc1)C1CC(c2ccc(Cl)c(Cl)c2)=NO1 (stereo unspecified) | 39.5 | – | –
16 | COc1cc(C(C(=O)NC2CCCC2)N(C(=O)Cc2cccs2)C2CC2)cc(OC)c1OC (stereo unspecified) | – | 0.116 µM [falling, full curve, poor fit] | –
17 | COc1ccc(C(=O)Nc2ccnn2C2CCN(Cc3cnn(C)c3)CC2)cc1 | – | 0.517 µM [rising, partial curve, poor fit] | –
18 | N#C/C(=C\c1cccnc1)C(=O)Nc1ccc(SC(F)F)cc1 | 23.2 | 9.2 µM [rising, partial curve] | –
19 | COc1ccc(NC(=O)C(=S)NC2CCCCC2)cc1 | 91.7 | 0.411 µM [rising, single point] | 16.4 µM [rising, single point]
20 | O=C(COc1ccccc1Br)N1CCN(C(=O)c2cccs2)CC1 | 16.3 | – | 1.46 µM [falling, partial curve]
21 | C/C=C(/C)C(=O)Nc1cccc(C2=NOC3(C2)C[C@H](C(N)=O)N(C(=O)Cc2ccc([N+](=O)[O-])cc2)C3)c1 (stereo partly specified) | 15.5 | 2.91 µM [falling, single point] | 5.17 µM [falling, single point]

5 compounds picked at random from the list so far:
Row | SMILES | cell number change [%] | AC50 [1] | AC50 [2]
18 | N#C/C(=C\c1cccnc1)C(=O)Nc1ccc(SC(F)F)cc1 | 23.2 | 9.2 µM [rising, partial curve] | –
15 | O=C(NCc1cccnc1)C1CC(c2ccc(Cl)c(Cl)c2)=NO1 (stereo unspecified) | 39.5 | – | –
7 | COc1ccc2c(-c3ccccc3)cc(SCC(=O)N(C)C3CCS(=O)(=O)C3)nc2c1 (stereo unspecified) | – | 0.0651 µM [rising, full curve, poor fit] | –
20 | O=C(COc1ccccc1Br)N1CCN(C(=O)c2cccs2)CC1 | 16.3 | – | 1.46 µM [falling, partial curve]
10 | Fc1cccc2sc(Nc3nc4ccccc4s3)nc12 | -44.1 | – | 0.231 µM [rising, full curve, poor fit]

(continued)

Row | SMILES | cell number change [%] | AC50 [1] | AC50 [2]
22 | CCc1ccc(OCC(=O)Nc2ncc3c(n2)CC(C)(C)CC3=O)cc1 | 15.3 | 2.06 µM [rising, partial curve] | –
23 | c1ccc(Cc2ccc(OCCN3CCOCC3)cc2)cc1 | -9.52 | – | –
24 | COc1cccc(CN(C)Cc2nc(Cc3ccccc3Cl)no2)c1 | 15.4 | 1.03 µM [rising, partial curve] | –
25 | Cc1cccc(NC(=O)Cn2nc(-c3cccs3)ccc2=O)c1C | 26.9 | 29.1 µM [falling, single point] | 0.517 µM [rising, full curve, poor fit]
26 | O=C(c1cnn2c(C(F)(F)F)cc(-c3ccco3)nc12)N1CCc2ccccc2C1 | – | 1.03 µM [rising, partial curve] | 0.92 µM [rising, partial curve]
27 | CCOC(=O)C1=C(C)Nc2nc3ccccc3n2C1c1ccc(O)cc1 (stereo unspecified) | 12.6 | 0.259 µM [rising, full curve, poor fit] | 0.461 µM [rising, full curve, poor fit]
28 | O=C(Nc1nc(=O)n(C(=O)C2CC2)s1)c1ccccc1 | 38.7 | – | 23.1 µM [rising, single point]
29 | C/C(=N/Nc1nc(C)c(C)s1)c1cccc([N+](=O)[O-])c1 | -20.4 | 14.6 µM [falling, single point] | –
30 | CCOc1ccc(NC(=O)C2CCN(C(=O)NCc3ccccc3)CC2)cc1 | -10.1 | – | 0.00517 µM [falling, full curve, poor fit]
31 | CC(C)CC(=O)N1CCN(Cc2cccc(Cl)c2)CC1 | -17.3 | 0.58 µM [falling, single point] | –
32 | CCCCCCNC(=O)Nc1ccccc1 | – | 14.6 µM [falling, partial curve, poor fit] | 6.51 µM [falling, single point]
33 | Cc1ccc(C(C)(C)C)cc1S(=O)(=O)N1CC(=O)Nc2ccccc21 | – | 6.51 µM [falling, single point] | –
34 | CC(C)(C)n1cnnc1Sc1ccc([N+](=O)[O-])cn1 | -29.9 | 0.651 µM [falling, full curve, poor fit] | –
35 | CNc1cc(C)nc(-n2nc(C)cc2C)n1 | -0.4 | 0.00731 µM [falling, full curve, poor fit] | –
36 | CCC(C)[C@@H](C(=O)NCC1CCC(C(=O)O)CC1)n1nnc2ccccc2c1=O (stereo partly specified) | 2.7 | 29.1 µM [rising, single point] | –
37 | Cc1cc(NC(=O)c2cc3n(n2)C(C(F)(F)F)CC(c2ccco2)N3)no1 (stereo unspecified) | – | 2.59 µM [rising, partial curve] | 3.66 µM [rising, partial curve]
38 | CC(=O)c1sc(NC(=O)C2=NN(c3ccccc3)C(=O)CC2)nc1C | -34.7 | – | –
39 | Cc1nc2ccc(Cl)cc2nc(C)/c1=N\O | 6.38 | – | –
40 | CCOC(=O)/C(=N\Nc1ccccc1Cl)N(C)C1CCCCC1 | -1.59 | – | –
41 | CCOC(=O)c1ccc(NC(=O)c2cnccn2)cc1 | 12.9 | 4.61 µM [rising, full curve, poor fit] | –
42 | Cc1ccc2nc(N3CCC(C(=O)O)CC3)nc(-c3ccccc3)c2c1 | 5.51 | 11.6 µM [rising, partial curve] | –

Row | SMILES | cell number change [%] | AC50 [1] | AC50 [2]
43 | C[N+](C)(C)CC(=O)N/N=C/c1c2ccccc2cc2ccccc12 | -9.44 | 0.58 µM [rising, single point] | –
44 | CN(C)C(CNC(=O)c1ccc(S(=O)(=O)N(C)C)cc1)Cc1ccccc1 (stereo unspecified) | 12.2 | – | 0.058 µM [rising, full curve, poor fit]
45 | Oc1ccc(Nc2nc(-c3cccs3)cs2)cc1 | -9.16 | 18.4 µM [falling, single point] | –
46 | Cc1cc(-c2ccccc2)nc(N/N=C/c2ccc(O)cc2O)n1 | -65.4 | – | 11.6 µM [falling, partial curve, poor fit]
47 | COCCCNC(=O)/C(C#N)=C/c1cc(C)[nH]c1C | -39 | – | 29.1 µM [falling, single point]
48 | c1ccc(N2CCN(c3nc4cc5c(cc4s3)OCO5)CC2)cc1 | – | 0.13 µM [rising, full curve, poor fit] | –
49 | C(#CC1CCCCC1)c1ccc2c(c1)COc1c3ccccc3nn1-2 | 8.39 | 4.11 µM [rising, full curve] | –
50 | O=S(=O)(/C=C/c1ccccc1)NCc1ccccc1Cl | -2.83 | 29.1 µM [rising, single point] | –
51 | Cn1cc(S(=O)(=O)NCc2ccco2)c(=O)n(C)c1=O | -43.5 | 10.3 µM [falling, partial curve] | 8.2 µM [falling, full curve]
52 | COc1ccc(OC)c(C(C(=O)NC2CCCCC2)N(Cc2ccco2)C(=O)c2ccccn2)c1 (stereo unspecified) | 2.94 | 5.8 µM [rising, full curve] | –
53 | COc1ccc(/C=C(\NC(=O)c2ccco2)C(=O)Nc2ccc(C(C)=O)cc2)cc1 | -6.23 | 18.4 µM [rising, partial curve] | –
54 | CC(C)c1ccc(CN2C(=O)NC3(CCCCCC3)C2=O)cc1 | – | 29.1 µM [falling, single point] | –
55 | COc1ccc(/C=C(\NC(=O)c2ccccc2)C(=O)NCc2ccco2)cc1OC | -17.1 | – | –
56 | O=C(O)c1cccnc1Nc1cccc(C(F)(F)F)c1 | -7.34 | 7.31 µM [falling, single point] | –
57 | CCN(CC)C(=O)Oc1ccnc2cc(Cl)ccc12 | -10.4 | 14.6 µM [falling, single point] | –
58 | NC(=O)C[N+]1(CC#CC(O)(c2ccccc2)c2ccccc2)CCCC1 | 37.8 | 13 µM [rising, partial curve, poor fit] | 14.6 µM [rising, partial curve, poor fit]
59 | CCCCNC(=O)C(c1ccc(OCC(=O)OC)c(C(=O)OC)c1)N(CCc1c[nH]c2ccccc12)C(=O)CCCCCN1C(=O)NC(c2ccc(-c3ccccc3)cc2)C(C(=O)OCc2ccccc2)=C1C (stereo unspecified) | 10.8 | 1.84 µM [rising, full curve, poor fit] | –
60 | O=C(c1ccccc1)c1ccc(C(=O)N2CCOCC2)cc1 | 4.27 | – | –
61 | CC(C)CN(C(=O)COC(=O)c1cc2ccccc2oc1=O)C1CCS(=O)(=O)C1 (stereo unspecified) | 1.49 | 0.00517 µM [falling, full curve, poor fit] | –
